These are yes or no findings as the source states them, for the method shown. In cells and extracts the contact can be indirect. Some entries that bind do so weakly or less than the wild type. Where a sequence is shown, tags or fusion partners need not be part of it.
Key:
[1] = biological target: FLAG-D3R (dopamine D3 receptor) (UniProt P35462); assay: co-IP; HEK-293 cells expressing D3R, transfected; treated with vehicle, 30 nM DA or 100 nM quinpirole (once or washed and re-challenged, desensitization protocol); also Con-KD and Mdm2-KD cells; RIPA lysates, anti-M2 FLAG agarose beads overnight at 4 °C; co-IP blotted for HA or importin β1
FLAG-arrestin2 = FLAG-arrestin2 (UniProt P49407); assay: as above

Protein sequences, listed by entry. Tags and fused reporters are not part of them. Lines headed by an entry give the natural chain unless they say otherwise; changes in a name come on top.
UniProt P35462: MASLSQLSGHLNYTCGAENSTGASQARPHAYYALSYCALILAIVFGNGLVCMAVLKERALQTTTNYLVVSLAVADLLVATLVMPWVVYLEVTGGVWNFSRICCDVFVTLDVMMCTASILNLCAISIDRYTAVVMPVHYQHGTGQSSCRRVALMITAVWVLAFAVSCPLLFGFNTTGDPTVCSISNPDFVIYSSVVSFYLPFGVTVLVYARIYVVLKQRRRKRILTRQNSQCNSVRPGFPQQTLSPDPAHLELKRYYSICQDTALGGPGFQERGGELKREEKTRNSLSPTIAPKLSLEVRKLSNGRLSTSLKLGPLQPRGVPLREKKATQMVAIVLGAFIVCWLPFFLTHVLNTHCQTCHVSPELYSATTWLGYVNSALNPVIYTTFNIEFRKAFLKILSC
UniProt P49407: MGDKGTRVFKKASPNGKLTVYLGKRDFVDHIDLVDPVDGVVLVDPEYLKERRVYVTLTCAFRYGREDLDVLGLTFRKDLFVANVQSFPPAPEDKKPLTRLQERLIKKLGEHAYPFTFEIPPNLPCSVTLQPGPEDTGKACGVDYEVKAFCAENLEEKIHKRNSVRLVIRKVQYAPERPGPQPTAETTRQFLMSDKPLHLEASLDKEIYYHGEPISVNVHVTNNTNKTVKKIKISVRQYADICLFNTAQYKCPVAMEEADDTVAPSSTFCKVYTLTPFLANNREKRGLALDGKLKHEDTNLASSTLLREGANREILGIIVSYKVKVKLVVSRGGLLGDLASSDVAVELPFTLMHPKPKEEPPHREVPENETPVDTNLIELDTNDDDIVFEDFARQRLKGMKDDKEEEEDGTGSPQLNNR

B1: HA-USP33 (ubiquitin-specific protease 33) (enzyme, UniProt Q8TEY7-2 1-911)
chain: MSAFRNHCPHLDSVGEITKEDLIQKSLGTCQDCKVQGPNLWACLENRCSYVGCGESQVDHSTIHSQETKHYLTVNLTTLRVWCYACSKEVFLDRKLGTQPSLPHVRQPHQIQENSVQDFKIPSNTTLKTPLVAVFDDLDIEADEEDELRARGLTGLKNIGNTCYMNAALQALSNCPPLTQFFLDCGGLARTDKKPAICKSYLKLMTELWHKSRPGSVVPTTLFQGIKTVNPTFRGYSQQDAQEFLRCLMDLLHEELKEQVMEVEEDPQTITTEETMEEDKSQSDVDFQSCESCSNSDRAENENGSRCFSEDNNETTMLIQDDENNSEMSKDWQKEKMCNKINKVNSEGEFDKDRDSISETVDLNNQETVKVQIHSRASEYITDVHSNDLSTPQILPSNEGVNPRLSASPPKSGNLWPGLAPPHKKAQSASPKRKKQHKKYRSVISDIFDGTIISSVQCLTCDRVSVTLETFQDLSLPIPGKEDLAKLHSSSHPTSIVKAGSCGEAYAPQGWIAFFMEYVKRFVVSCVPSWFWGPVVTLQDCLAAFFARDELKGDNMYSCEKCKKLRNGVKFCKVQNFPEILCIHLKRFRHELMFSTKISTHVSFPLEGLDLQPFLAKDSPAQIVTYDLLSVICHHGTASSGHYIAYCRNNLNNLWYEFDDQSVTEVSESTVQNAEAYVLFYRKSSEEAQKERRRISNLLNIMEPSLLQFYISRQWLNKFKTFAEPGPISNNDFLCIHGGVPPRKAGYIEDLVLMLPQNIWDNLYSRYGGGPAVNHLYICHTCQIEAEKIEKRRKTELEIFIRLNRAFQKEDSPATFYCISMQWFREWESFVKGKDGDPPGPIDNTKIAVTKCGNVMLRQGADSGQISEETWNFLQSIYGGGPEVILRPPVVHVDPDILQAEEKIEVETRSL
- binding [1]: binds
- binding (FLAG-arrestin2): binds
